Reference: PubChem BioAssay AID504791 (Drosophila RNAi Screening Center, 2011)
Test: 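Genes of the fly required for silencing by miRNA, siRNA or endo-siRNA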 (primary screen). System: Drosophila S2-derived reporter cells. Reagents: long dsRNA against Drosophila genes, about 150-250 ng dsRNA per well (siRNA assay); about 80-120 ng (miRNA assay). Duration: about 5 days (siRNA assay); about 4 days (miRNA assay). Challenge: copper sulfate induction of reporters: 25 µM (siRNA assay); 200 mM stated (miRNA assay), 1-2 days before reading. Read-out: 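Dual luciferase assay: Renilla to firefly signal ratio in each well, scaled to the mean ratio of its plate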. Direction: siRNA reporter hit score: higher = 3 marks a strong hit with raised ratio; -3 a strong hit with lowered ratio. Call rule: 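a well was a first-pass pick when its plate-scaled ratio rose above 1.5 (siRNA assay) or 1.6 (miRNA assay), or dropped below 0.6; a gene counted only if two separate dsRNAs agreed on retest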.
In all, the deposit lists about 23,000 reagents; this is an unselected part of those with a known target gene and a result. In the full data, 199 (0.86%) are marked active. 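Plate-scaled ratios behind the calls are not deposited; printed light signals are raw; many rows marked increased or decreased are still called inactive.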

| predicted target | dsRNA | siRNA reporter hit score | stable siRNA reporter change | miRNA reporter change | stable assay Renilla, run 1 (luminescence) | stable assay firefly, run 1 (luminescence) | outcome |
| --- | --- | --- | --- | --- | --- | --- | --- |
| Rim | DRSC16224 | – | reporter ratio lowered past the hit cutoff | – | 6551 | 5.21e5 | inactive |
| Rim | DRSC16225 | – | – | – | 7793 | 3.00e5 | inactive |
| Rim | DRSC16226 | – | – | – | 8147 | 3.85e5 | inactive |
| Rim | DRSC16227 | – | – | – | 7646 | 5.13e5 | inactive |
| Rim | DRSC22406 | – | – | – | 3720 | 3.50e5 | inactive |
| CG6013 | DRSC15947 | – | – | – | 8138 | 4.21e5 | inactive |
| Tmem214 | DRSC02924 | – | – | – | 8231 | 4.54e5 | inactive |
| Tmem214 | DRSC02925 | – | – | – | 8036 | 5.68e5 | inactive |
| CG3702 | DRSC00628 | – | – | – | 12217 | 7.29e5 | inactive |
| mr | DRSC04332 | – | – | – | 85782 | 1.33e6 | inactive |
| mr | DRSC22856 | – | – | – | 4850 | 4.31e5 | inactive |
| RpS4 | DRSC11272 | – | – | reporter ratio lowered past the hit cutoff | 5195 | 3.16e5 | inactive |
| mdy | DRSC01559 | – | – | – | 5192 | 3.65e5 | inactive |
| mdy | DRSC02250 | – | – | – | 9916 | 1.94e6 | inactive |
| bun | DRSC01253 | – | – | – | 4704 | 3.96e5 | inactive |
| bun | DRSC01255 | – | – | – | 5011 | 4.60e5 | inactive |
| bun | DRSC03500 | – | – | – | 12792 | 5.76e5 | inactive |
| bun | DRSC23041 | – | – | – | 4216 | 3.73e5 | inactive |
| Ppr-Y | DRSC20892 | – | – | – | 4288 | 3.42e5 | inactive |
| CSN4 | DRSC07350 | – | – | – | 4072 | 3.68e5 | inactive |
| CG7557 | DRSC10878 | – | – | – | 7163 | 3.45e5 | inactive |
| mRpL46 | DRSC08391 | – | – | – | 5702 | 3.66e5 | inactive |
| Hpf1 | DRSC12202 | – | – | – | 8732 | 4.57e5 | inactive |
| mRpL24 | DRSC03113 | – | – | – | 11571 | 4.87e5 | inactive |
| CG13002 | DRSC19521 | – | – | – | 5198 | 4.98e5 | inactive |
| CG41520 | DRSC21102 | – | – | – | 4792 | 3.49e5 | inactive |
| CG41520 | DRSC21103 | – | – | – | 5575 | 3.93e5 | inactive |
| NimB4 | DRSC01884 | – | – | – | 1.75e5 | 1.39e6 | inactive |
| Ns1 | DRSC15529 | – | – | – | 8441 | 3.41e5 | inactive |
| bru1 | DRSC01234 | – | – | reporter ratio lowered past the hit cutoff | 3711 | 2.78e5 | inactive |
| bru1 | DRSC01236 | – | – | – | 4207 | 2.42e5 | inactive |
| bru1 | DRSC01237 | 3 | – | – | 4212 | 3.63e5 | inactive |
| bru1 | DRSC01238 | – | – | – | 4635 | 2.89e5 | inactive |
| bru1 | DRSC03485 | – | – | reporter ratio lowered past the hit cutoff | 1.14e5 | 3.35e5 | inactive |
| CG11106 | DRSC19381 | – | – | – | 5816 | 4.10e5 | inactive |
| CG5171 | DRSC02823 | – | – | – | 9505 | 4.83e5 | inactive |
| Shark | DRSC07680 | – | – | – | 8102 | 3.45e5 | inactive |
| wds | DRSC18852 | – | reporter ratio raised past the hit cutoff | – | 13692 | 4.62e5 | active |
| pigs | DRSC17472 | – | – | – | 5699 | 4.12e5 | inactive |
| pigs | DRSC18334 | – | – | – | 5711 | 4.23e5 | inactive |
| pigs | DRSC18335 | – | – | – | 5671 | 3.55e5 | inactive |
| Hs3st-A | DRSC06507 | – | – | – | 8417 | 2.46e5 | inactive |
| Hs3st-A | DRSC06508 | – | – | – | 6928 | 2.69e5 | inactive |
| Hs3st-A | DRSC06509 | – | – | – | 6652 | 2.99e5 | inactive |
| stv | DRSC09796 | – | – | – | 9746 | 4.20e5 | inactive |
| stv | DRSC10111 | – | – | – | 5788 | 3.83e5 | inactive |
| Tsp42Ee | DRSC05947 | – | – | – | 7202 | 4.86e5 | inactive |
| smog | DRSC00334 | – | – | – | 6831 | 4.12e5 | inactive |
| smog | DRSC00335 | – | – | – | 6727 | 3.00e5 | inactive |
| smog | DRSC23053 | – | – | – | 3555 | 3.08e5 | inactive |
| smog | DRSC27223 | – | – | reporter ratio lowered past the hit cutoff | – | – | inactive |
| Ant2 | DRSC19330 | – | – | – | 6792 | 3.45e5 | inactive |
| CG17122 | DRSC10245 | – | – | – | 6283 | 3.72e5 | inactive |
| Cyp9h1 | DRSC07391 | – | – | – | 4520 | 2.85e5 | inactive |
| MED8 | DRSC06426 | -3 | – | – | 5674 | 3.80e5 | inactive |
| sna | DRSC03613 | – | – | – | 7183 | 3.56e5 | inactive |
| MESR4 | DRSC06901 | – | – | – | 8156 | 3.68e5 | inactive |
| CG10543 | DRSC04081 | – | – | – | 5895 | 3.65e5 | inactive |
| CG10543 | DRSC23102 | – | – | – | 3232 | 3.45e5 | inactive |
| Rpn8 | DRSC04624 | – | – | – | 5039 | 2.02e5 | inactive |
| Rpt4R | DRSC10791 | – | – | – | 4791 | 3.18e5 | inactive |
| CG14712 | DRSC14935 | – | – | – | 8563 | 5.05e5 | inactive |
| CG10307 | DRSC04057 | – | – | – | 12754 | 7.14e5 | inactive |
| Nlp | DRSC16759 | – | – | – | 7613 | 4.49e5 | inactive |
| ppk25 | DRSC04973 | – | – | – | 6843 | 3.32e5 | inactive |
| CG13031 | DRSC09911 | – | – | – | 7592 | 3.30e5 | inactive |
| CG7860 | DRSC20060 | – | – | – | 7831 | 4.63e5 | inactive |
| CG13245 | DRSC02243 | – | – | – | 1.42e5 | 1.63e6 | inactive |
| Pdss2 | DRSC11625 | – | – | – | 9855 | 3.53e5 | inactive |
| CG14418 | DRSC18637 | – | – | – | 5507 | 3.06e5 | inactive |
| CG14418 | DRSC23051 | – | – | – | 6110 | 4.13e5 | inactive |
| ovo | DRSC18050 | – | – | – | 8354 | 5.90e5 | inactive |
| ovo | DRSC18812 | – | – | – | 6347 | 3.47e5 | inactive |
| Gapvd1 | DRSC19752 | – | – | – | 4788 | 3.82e5 | inactive |
| unc | DRSC20511 | – | – | – | 6055 | 4.71e5 | inactive |
| mask | DRSC15370 | – | – | – | 8125 | 3.02e5 | inactive |
| mask | DRSC16005 | – | – | – | 10019 | 3.62e5 | inactive |
| mask | DRSC16018 | – | – | – | 9939 | 3.14e5 | inactive |
| CG14607 | DRSC12551 | – | – | – | 7171 | 3.90e5 | inactive |
| dbe | DRSC00811 | – | – | – | 13392 | 1.00e5 | inactive |
| Mabi | DRSC02489 | – | – | – | 4691 | 4.86e5 | inactive |
| CG3104 | DRSC00567 | – | – | – | 7977 | 5.75e5 | inactive |
| vtd | DRSC20839 | – | – | – | 4851 | 3.61e5 | inactive |
| CG10576 | DRSC09745 | – | – | – | 8538 | 5.27e5 | inactive |
| Ugt37A1 | DRSC02114 | – | – | – | 8069 | 4.60e5 | inactive |
| Rev1 | DRSC08264 | – | – | – | 12404 | 4.29e5 | inactive |
| ReepA | DRSC04572 | – | – | – | 12484 | 7.22e5 | inactive |
| ReepA | DRSC22475 | – | – | – | 3011 | 3.30e5 | inactive |
| CG5455 | DRSC15805 | – | – | – | 8257 | 5.30e5 | inactive |
| CG32066 | DRSC10652 | – | – | – | 10598 | 5.73e5 | inactive |
| CG32066 | DRSC10653 | – | – | – | 8089 | 4.58e5 | inactive |
| mahj | DRSC04053 | – | – | – | 91643 | 1.60e6 | inactive |
| Pdzd8 | DRSC19355 | – | – | reporter ratio lowered past the hit cutoff | 6643 | 5.10e5 | inactive |
| VGAT | DRSC07160 | – | – | – | 6239 | 4.94e5 | inactive |
| CG34241 | DRSC09157 | – | – | – | 5720 | 2.89e5 | inactive |
| Tdg | DRSC17119 | – | – | – | 6830 | 2.95e5 | inactive |
| Tdg | DRSC17169 | – | – | – | 5688 | 3.56e5 | inactive |
| mib1 | DRSC10550 | – | – | – | 7795 | 3.51e5 | inactive |
| Pgls | DRSC19769 | – | – | – | 4780 | 3.74e5 | inactive |
| CG5021 | DRSC10469 | – | – | – | 5619 | 3.27e5 | inactive |
| dysf | DRSC14529 | – | – | – | 8059 | 3.39e5 | inactive |
| dysf | DRSC14895 | – | – | – | 6519 | 2.84e5 | inactive |
| dysf | DRSC14896 | – | – | – | 6910 | 3.26e5 | inactive |
| dysf | DRSC14897 | – | – | – | 5415 | 1.78e5 | inactive |
| Gfat1 | DRSC21219 | – | – | – | 8077 | 5.65e5 | inactive |
| IKKepsilon | DRSC03550 | – | – | – | 6670 | 3.39e5 | inactive |
